# Assay results: the supplement of paper PMC12823440, “Inhibitors supercharge kinase turnover through native proteolytic circuits” (Nature, 2025)
# Where a name gives a salt, the structure may show the parent alone. The list shows a part of the results. Hit calls seldom repeat between salt and free forms of one compound.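 Kinases, fused to nanoluciferase, were expressed in K562 cells; luminescence was measured every 4 h from 2 to 18 h as percent of control (DMSO = 100%, positive control = 0%). A time point is decreased if signal falls significantly (2 sigma). Hits were called by the authors by a rule that is not shown; the count of time points alone does not decide it.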
# Target: SYK (UniProt P43405)
# Assay: number of time points (of 5) at which kinase-Nluc abundance scored as decreased, DMSO-normalised (count); higher = more persistent destabilization
# Settings: K562; 2-18 h
row,SMILES,number of time points
1,COc1ccc(Br)c(C=O)c1O [6-Bromo-2-hydroxy-3-methoxybenzaldehyde] (10 µM),0
2,O=C1C=CC2=C3c4cc(O)c(O)cc4CC3(O)COC2=C1O (configuration not stated) [Hematein] (10 µM),0
3,Cc1cccc(CC(=O)N2CCc3c2ccc(-c2cn(C)c4ncnc(N)c24)c3F)n1 (10 µM),0
4,COCCOc1cnc2ccn([C@H](C)c3nnc4c(F)cc(-c5cnn(C)c5)cn34)c(=O)c2c1 (10 µM),0
5,Cn1cc(C2=C(c3ccc(Cl)cc3Cl)C(=O)NC2=O)c2ccccc21 (10 µM),0
6,COc1cc(N2CCC(N3CCN(C)CC3)CC2)ccc1Nc1ncnc(Nc2ccccc2S(=O)(=O)C(C)C)n1 (10 µM),0
7,COc1c(Nc2ncc(Cl)c(N[C@H]3[C@@H](C(N)=O)[C@@H]4C=C[C@H]3C4)n2)ccc2c1CC[C@@H](N1CCOCC1)CC2 (10 µM),0
8,Cc1ccc(NC(=O)N2CCN(c3nc(N)nc4sc(-c5cccnc5)nc34)CC2)cc1 [PI4KIII beta inhibitor 3] (10 µM),0
9,CNc1cc2c(Nc3cccc(Br)c3)ncnc2cn1 (10 µM),0
10,CC(C)n1c(CO)nc2c(F)cc(-c3nc(Nc4ccc(CN5CCNCC5)cn4)ncc3F)cc21 (10 µM),0
11,CN1CCC(Nc2ccc(C(=O)Nc3cc(-c4ccc5c(c4)OCO5)[nH]n3)cc2)CC1 (10 µM),0
12,CNC(=O)CN1CCC(Oc2cc3c(Nc4cccc(Cl)c4F)ncnc3cc2OC)CC1 [Sapitinib] (10 µM),0
13,O=C(O)c1c[nH]c2cc(Cl)c(-c3ccc(C4(O)CCC4)cc3)cc12 (10 µM),0
14,COc1cc(N2CCC(O)CC2)ccc1Nc1nc(Nc2ccccc2S(=O)(=O)C(C)C)c2[nH]cnc2n1 (10 µM),0
15,O=c1c(O)c(-c2ccc(O)c(O)c2)oc2cc(O)c(O)c(O)c12 [Quercetagetin] (10 µM),0
16,Cc1ncsc1-c1ccc(CNC(=O)[C@@H]2C[C@@H](O)CN2C(=O)[C@@H](NC(=O)COCCOc2ccc(-c3cc(Nc4ccc(OC(F)(F)F)cc4)ncn3)cc2)C(C)(C)C)cc1 (2.5 µM),0

row,SMILES,number of time points
1,COc1cc(Nc2ccnc3ccc(Br)cc23)cc(OC)c1OC (2.5 µM),0
2,Cc1ccc2c(NS(=O)(=O)c3ccccc3Cl)cccc2c1Oc1ncccc1-c1ccnc(N[C@H]2CCCNC2)n1 (2.5 µM),0
3,CC(C)c1cc2c(c(O)c1O)[C@@]13CCCC(C)(C)[C@@H]1C[C@@H]2OC3=O [Carnosol] (2.5 µM),0
4,Cc1nc2c(NCc3cccc(S(C)(=O)=O)c3)nccn2c1-c1ccc(O)c(F)c1 (10 µM),0
5,CC(C)n1cnc2c(Nc3cccc(Cl)c3)nc(N[C@H]3CCCC[C@@H]3N)nc21 (2.5 µM),0
6,O=c1cc(N2CCOCC2)oc2c(-c3cccc4c3sc3ccccc34)cccc12 (10 µM),0
7,C[C@@H]1COC(Nc2ccc3ncnc(Nc4ccc(OCc5nccs5)c(Cl)c4)c3c2)=N1 [Varlitinib] (10 µM),0
8,Cc1cncc2cccc(S(=O)(=O)N3CCCNC[C@@H]3C)c12 [H-1152 (dihydrochloride)] (10 µM),0
9,CCC[C@H](C)Oc1nc(N)c2[nH]c(=O)n(CCCCCN3CCCCC3)c2n1 (10 µM),0
10,CC(C)(Oc1ccc(Cl)cc1)C(=O)Nc1ccc(OCc2ccc(C#N)cc2)cc1 [AMPK activator 4] (10 µM),0
11,Cc1cc(N2CCOCC2)ccc1Nc1nc(NC2CCCCC2)c2[nH]cnc2n1 (10 µM),0
12,CC(ONC(=O)c1cc(C(F)(F)F)cc(C(F)(F)F)c1)C(=O)Nc1ccc(Cl)cc1 (configuration not stated) (2.5 µM),0
13,O=S(=O)(c1ccc(O)cc1O)N1Cc2cc(O)cc(O)c2C1 (10 µM),0
14,CN1CCN(c2ccc(-n3cc(-c4ccncc4OCC4CCNCC4)cn3)cc2)CC1 [MELK-8a (hydrochloride)] (10 µM),1
15,CCCCC(=O)OCC(=O)[C@]1(O)Cc2c(O)c3c(c(O)c2[C@@H](O[C@H]2C[C@H](NC(=O)C(F)(F)F)[C@H](O)[C@H](C)O2)C1)C(=O)c1c(OC)cccc1C3=O [Valrubicin] (10 µM),0
16,CC(C)=CCC[C@](C)(O[C@@H]1O[C@H](CO[C@@H]2O[C@H](CO)[C@@H](O)[C@H](O)[C@H]2O)[C@@H](O)[C@H](O)[C@H]1O)[C@H]1CC[C@]2(C)[C@@H]1[C@H](O)C[C@@H]1[C@@]3(C)CC[C@H](O[C@@H]4O[C@H](CO)[C@@H](O)[C@H](O)[C@H]4O[C@@H]4O[C@H](CO)[C@@H](O)[C@H](O)[C@H]4O)C(C)(C)[C@@H]3CC[C@]12C [Ginsenoside Rb1] (10 µM),0

# Fetched one by one from the list above (2):
row,SMILES,number of time points
2,Cc1ccc2c(NS(=O)(=O)c3ccccc3Cl)cccc2c1Oc1ncccc1-c1ccnc(N[C@H]2CCCNC2)n1 (2.5 µM),0
5,CC(C)n1cnc2c(Nc3cccc(Cl)c3)nc(N[C@H]3CCCC[C@@H]3N)nc21 (2.5 µM),0
